Values quoted from earlier work as cited in article PMC10090470 (Parasitology, 2023).
Like-named read-outs stand apart in the source and are kept apart here.

Experiments:
[1] = system: intracellular forms of Trypanosoma cruzi (Tulahuen strain, DTU VI); settings: read-out: Activity against intracellular forms of the parasite EC50, ± S.D., ref Simões-Silva et al. (2019); cited from earlier work
[2] = system: bloodstream trypomastigote forms of Trypanosoma cruzi (Y strain, DTU II); settings: cited from earlier work

SMILES: Cc1ccc(NC(=O)c2ccc(CN3CCN(C)CC3)cc2)cc1Nc1nccc(-c2cccnc2)n1 [IMB, Imatinib]
- EC50 [1]: 24.8 ± 7.4 µM
- EC50 ([2]; read-out: Activity against bloodstream trypomastigotes EC50, 2 h, ref Simões-Silva et al. (2019)): > 50 µM
- EC50 ([2]; read-out: Activity against bloodstream trypomastigotes EC50, 24 h, ± S.D., ref Simões-Silva et al. (2019)): 47.1 ± 9.5 µM
- EC90 ([2]; read-out: Activity against bloodstream trypomastigotes EC90, 2 h, ref Simões-Silva et al. (2019)): > 50 µM
- EC90 ([2]; read-out: Activity against bloodstream trypomastigotes EC90, 24 h, ± S.D., ref Simões-Silva et al. (2019)): > 50 µM
